Results published in patent publication US20110158908A1, “CYCLOSPORIN A-BINDING PROTEIN” (Sapporo Medical University, priority 2007, published 2011).
These are yes or no findings as the source states them, for the method shown. For some of these results: Binding seen in cells or lysates may run through a third protein. Some binding calls cover weakened binding; strength is not graded here. For some of these results: Tags and fused reporters may be left off the sequences shown.

By UniProt entry, the sequences of proteins in these tests, tags left out. Residues count along the entry.
UniProt P23284, residues 34-216: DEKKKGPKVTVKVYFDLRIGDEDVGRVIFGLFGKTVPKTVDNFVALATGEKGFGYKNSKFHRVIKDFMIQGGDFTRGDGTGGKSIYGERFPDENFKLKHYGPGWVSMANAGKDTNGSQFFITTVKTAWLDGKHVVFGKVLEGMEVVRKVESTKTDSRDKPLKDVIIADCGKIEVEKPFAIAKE

Assays:
cyclophilin B (CyPB) [1] = molecular target: cyclophilin B (CyPB) (UniProt P23284); test: GST pull-down with glutathione Sepharose, 35S-labeled in vitro synthesized protein, autoradiography
cyclophilin B (CyPB) [2] = molecular target: cyclophilin B (CyPB) (UniProt P23284); test: GST pull-down of 35S-labelled in vitro synthesized CyPB with GST-CSABP on glutathione Sepharose, CsA added to the co-culture, SDS-PAGE, autoradiography
cyclophilin B (CyPB) [3] = molecular target: cyclophilin B (CyPB) (UniProt P23284); test: GST pull-down (recap of the in vitro experiment)
cyclophilin B (CyPB) [4] = molecular target: cyclophilin B (CyPB) (UniProt P23284); test: co-precipitation from MH14 cell lysate with polyU Sepharose, western blot

B1: CSABP-GST fusion protein (protein, not shown: a dimerising Fc or GST)
chain: MSRPSSVSPRQPAPGGGGGGGPSPCGPGGGGRAKGLKDIRIDEEVKIAVNIALERFRYGDQREMEFPSSLTSTERAFIHRLSQSLGLVSKSKGKGANRYLTVKKKDGSETAHAMMTCNLTHNTKHAVRSLIQRFPVTNKERTELLPKTERGNVFAVEAENREMSKTSGRLNNGIPQIPVKRGESEFDSFRQSLPVFEKQEEIVKIIKENKVVLIVGETGSGKTTQIPQFLLDDCFKNGIPCRIFCTQPRRLAAIAVAERVAAERRERIGQTIGYQIRLESRVSPKTLLTFCTNGVLLRTLMAGDSTLSTVTHVIVDEVHERDRFSDFLLTKLRDLLQKHPTLKLILSSAALDVNLFIRYFGSCPVIYIQGRPFEVKEMFLEDILRTTGYTNKEMLKYKKEKQQEEKQQTTLTEWYSAQENSFKPESQRQRTVLNVTDEYDLLDDGGDAVFSQLTEKDVNCLEPWLIKEMDACLSDIWLHKDIDAFAQVFHLILTENVSVDYRHSETSATALMVAAGRGFASQVEQLISMGANVHSKASNGWMALDWAKHFGQTEIVDLLESYSASLEFGNLDESSLVQTNGSDLSAEDRELLKAYHHSFDDEKVDLDLIMHLLYNICHSCDAGAVLIFLPGYDEIVGLRDRILFDDKRFADNTHRYQVFMLHSNMQTSDQKKVLKNPPAGVRKIILSTNIAETSITVNDVVFVIDSGKVKEKSFDALNFVTMLKMVWISKASAIQRKGRAGRCRPGICFRLFSRLRFQNMLEFQTPELLRMPLQELCLHTKLLAPVNCPIADFLMKAPEPPPALIVRNAVQMLKTIDAMDTWEDLTELGYHLADLPVEPHLGKMVLCAVVLKCLDPILTIACTLAYRDPFVLPTQASQKRAAMLCRKRFTAGAFSDHMALLRAFQAWQKARSDGWERAFCEKNFLSQATMEIIIGMRTQLLGQLRASGFVRARGGGDIRDVNTNSENWAVVKAALVAGMYPNLVHVDRENLVLTGPKEKKVRFHPASVLSQPQYKKIPPANGQAAAIKALPTDWLIYDEMTRAHRIANIRCCSAVTPVTILVFCGPARLASNALQEPSSFRVDGIPNDSSDSEMEDKTTANLAALKLDEWLHFTLEPEAASLLLQLRQKWHSLFLRRMRAPSKPWSQVDEATIRAIIAVLSTEEQSAGLQQPSGIGQRPRPMSSEELPLASSWRSNNSRKSSADTEFSDECTTAERVLMKSPSPALHPPQKYKDRGILHPKRGTEDRSDQSSLKSTDSSSYPSPCASPSPPSSGKGSKSPSPRPNMPVRYFIMKSSNLRNLEISQQKGIWSTTPSNERKLNRAFWESSIVYLVFSVQGSGHFQGFSRMSSEIGREKSQDWGSAGLGGVFKVEWIRKESLPFQFAHHLLNPWNDNKKVQISRDGQELEPLVGEQLLQLWERLPLGEKNTTD
- binding (cyclophilin B (CyPB) [1]): binds
- binding (cyclophilin B (CyPB) [2]): binds
- binding (cyclophilin B (CyPB) [3]): binds

B2: CSABP (cyclosporin A-binding protein), endogenous in MH14 cells (enzyme)
chain: B1 chain
- binding (cyclophilin B (CyPB) [4]): binds
